# Experimental data published in PubChem BioAssay AID445 (National Center for Advancing Translational Sciences (NCATS), 2006).
# Some of the results follow. These are further read-outs of the screen, such as a control signal, another cell line or another target. No call is given for them. The list favours compounds with an active or inconclusive main result. Words in brackets tell the shape of the fitted curve; partial curves, single points and poor fits give uncertain potencies.
# Assay: IkB Signaling
# Settings: ABC-DLBCL IkBa-CBG/CBR dual luciferase ratio (green luciferase fused to IkBa over red control in OCI-Ly3 lymphoma cells), 4 h
# In short: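 In this assay, an IκBα–CBG68 fusion accumulates when IKK-driven degradation is blocked; native CBR normalizes for cell number. OCI-Ly3 cells were treated 4 h with compound and doxycycline, then green and red light read after Chroma-Glo addition.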
# [1] = measured here: control luc red channel unless noted
smiles,measurement,setting,value
Cc1ccc(C(CC(=O)NCC2(c3ccccc3)CCCC2)c2ccccc2)c(O)c1 (centres undefined),AC50,[1],"12.6 µM [falling, partial curve]"
Cc1ccc(Nc2nnc(-c3ccc(C)c(S(=O)(=O)N4CCCCC4)c3)c3ccccc23)cc1,AC50,[1],"10 µM [falling, partial curve]"
CCOc1ccc2c(c1)[C@@H]1C=CC[C@@H]1[C@H](c1ccccc1Cl)N2,AC50,[1],"12.6 µM [falling, single point]"
CC(C)(C)OC(=O)N1CCC(c2c(C(=O)Nc3ccc4c(c3)OCCO4)cnn2-c2ccc(F)cc2)CC1,AC50,[1],"39.8 µM [falling, single point]"
COc1ccc(OC)c(NCc2cccn2-c2nnc(N3CCC(C)CC3)s2)c1,AC50,[1],"39.8 µM [rising, single point]"
Cc1cccc(-c2nc3c(cnn3-c3ccccc3)c(=O)n2-c2cccc(Cl)c2)c1,AC50,[1],"10 µM [falling, partial curve]"
CC1CCCCN1S(=O)(=O)c1ccc(F)c(C(=O)Nc2ccccc2C(F)(F)F)c1 (centres undefined),AC50,[1],"31.6 µM [falling, single point]"
CCOC(=O)C1CCN(c2cc3c(cc2NC(=O)c2ccc(OC)c(OC)c2)n(C)c(=O)n3C)CC1,AC50,[1],"10 µM [falling, partial curve]"
O=C(O)c1cccc(Nc2ncnc3ccccc23)c1,AC50,[1],"5.01 µM [falling, full curve]"
CCCc1ccc(-c2ccc(C(=O)O)cc2)nc1,AC50,[1],"0.251 µM [falling, full curve]"
Cc1cn2c(=O)cc(COc3cc(C)c(Cl)c(C)c3)nc2s1,AC50,[1],"2.51 µM [rising, partial curve]"
CCOc1cc2sc(N3CCC(C(=O)Nc4ccc(C(C)C)cc4)CC3)nc2cc1Br,AC50,[1],"0.158 µM [falling, full curve]"
CCOc1ccc(NC(=O)CN(c2ccccc2OCC)S(=O)(=O)c2ccccc2)cc1,AC50,[1],"10 µM [falling, partial curve]"
COc1cccc(-c2cc(C(=O)Nc3ccccc3SC)no2)c1,AC50,[1],"0.00316 µM [falling, full curve]"
Cc1cc(Cl)ccc1NS(=O)(=O)c1ccc2c(c1)CCN2S(C)(=O)=O,AC50,[1],"20 µM [falling, partial curve]"
COc1ccc(S(=O)(=O)N2CCN(Cc3nc4ccc(C)cc4o3)CC2)cc1OC,AC50,[1],"10 µM [falling, partial curve]"
CC1CC(C)CN(c2ncc3c(n2)CC(c2ccccc2)CC3=O)C1 (centres undefined),AC50,measured here: IkB-luc green channel,"7.94 µM [rising, single point]"
same,AC50,measured here: control luc red channel,"6.31 µM [rising, single point]"
COC(=O)Cc1[nH]nc2c1C(C1C=CCCC1)C(C#N)=C(N)O2 (centres undefined),AC50,[1],"15.8 µM [falling, partial curve]"
O=C(NCc1cccs1)c1nn(-c2ccccc2)nc1CO,AC50,[1],"6.31 µM [falling, single point]"
CCOc1ccc(NC(=O)CSc2cc(C)c3ccccc3n2)cc1,AC50,[1],"1 µM [rising, single point]"
COc1ccc(CCNC(=O)Cc2c(C)c3c(cc(C)c4c(C)c(C)oc43)oc2=O)cc1OC,AC50,[1],"39.8 µM [falling, single point]"
Cc1ccc(NC(=O)Cn2c(=O)n(-c3ccc(C)cc3)c(=O)c3ccc(C(=O)NCc4ccccc4Cl)cc32)cc1,AC50,[1],"10 µM [falling, partial curve]"
Cc1cc(C)cc(NC(=O)c2sc3nc(-c4ccccc4)cn3c2C)c1,AC50,[1],"3.16 µM [falling, partial curve]"
CC(=O)Nc1nonc1-c1nnc(SCc2ccc(F)cc2Cl)n1C,AC50,[1],"15.8 µM [falling, single point]"
CCOC(=O)c1cccc(NC(=O)CCS(=O)(=O)c2ccc(Br)s2)c1,AC50,[1],"39.8 µM [falling, single point]"
COc1ccc(NC(=O)c2cc(-c3ccc4c(c3)OCO4)on2)c(OC)c1,AC50,[1],"5.01 µM [falling, full curve, poor fit]"
COc1ccc(/C=C/C(=O)Nc2ccc3nc(N4CCC(C)CC4)cc(C)c3c2)cc1OC,AC50,[1],"7.94 µM [falling, full curve]"
Cn1c(=O)c2c(nc(SCC(=O)Nc3ccc(F)cc3F)n2Cc2ccccc2)n(C)c1=O,AC50,[1],"7.94 µM [falling, full curve]"
CC1(C(=O)NC2CCCCC2)Cc2ccccc2C(=O)N1Cc1ccc(Cl)cc1 (centres undefined),AC50,[1],"39.8 µM [falling, single point]"
Cc1nc2nc(SCC(=O)NCc3ccccc3)nn2c(C)c1Cc1ccccc1Cl,AC50,[1],"31.6 µM [falling, single point]"
O=C(CN1CCCN(Cc2ccccc2Cl)S1(=O)=O)Nc1ccc2c(c1)OCCO2,AC50,[1],"20 µM [falling, partial curve]"
CCN(CC)c1ccc(NC(=O)Nc2cccc(C(C)=O)c2)cc1,AC50,[1],"15.8 µM [falling, partial curve]"
CCn1c2ccccc2c2nnc(N3CCN(c4cccc(C)c4C)CC3)nc21,AC50,[1],"15.8 µM [falling, partial curve]"
O=C(NCCCN1CCOCC1)c1ccc2c(c1)N(Cc1ccccc1)C(=O)c1ccccc1S2,AC50,[1],"15.8 µM [falling, single point]"
CC1=C(C(=O)Nc2ccccc2)C(c2ccco2)C(C#N)=C(SCc2ccccc2)N1 (centres undefined),AC50,[1],"6.31 µM [falling, partial curve]"
CCOc1ccc(NC(=O)NC(C)c2c(-n3cccc3)sc(C)c2C)cc1 (centres undefined),AC50,[1],"31.6 µM [falling, single point]"
Cc1cccc(OCCCCn2nnc3sc4c(c3c2=O)CCC(C)C4)c1 (centres undefined),AC50,[1],"25.1 µM [falling, single point]"
COc1ccccc1NC(=O)Cn1c(=O)n(Cc2ccccc2)c(=O)c2ccccc21,AC50,[1],"0.0251 µM [falling, full curve]"
CC(=O)N[C@@H](Cc1c[nH]c2ccccc12)C(=O)OCc1cc(C(F)(F)F)cc(C(F)(F)F)c1,AC50,[1],"39.8 µM [falling, partial curve]"
COc1cccc2c1Oc1nc(-c3ccccc3)nc(SCC(=O)N3CCCCC3)c1C2,AC50,[1],"10 µM [falling, partial curve]"
COc1ccc(CN2COc3ccc4c(C)cc(=O)oc4c3C2)cc1,AC50,[1],"3.98 µM [rising, partial curve, poor fit]"
COC(=O)c1ccc(NC(=O)Nc2nnc(N(C)C3CCCCC3)s2)cc1,AC50,[1],"31.6 µM [falling, single point]"
N#CC1=C(SCc2ccccc2)NC(=O)C(C#N)C12CCCC2 (centres undefined),AC50,[1],"25.1 µM [falling, partial curve]"
Cc1cc(NC(=O)CS(=O)(=O)c2cn(Cc3ccccc3Cl)c3ccccc23)no1,AC50,[1],"12.6 µM [falling, partial curve]"
COC(=O)c1ccc(NC(=O)Cc2coc3cc(C)ccc23)cc1,AC50,[1],"39.8 µM [falling, single point]"
CCOc1ccc(-c2ccc(NS(=O)(=O)c3cc(C)c(C)cc3C)cc2)nn1,AC50,[1],"20 µM [falling, partial curve]"
O=C1CCCC2=C1C(c1ccco1)Nc1ccc(C(=O)c3ccccc3)cc1N2 (centres undefined),AC50,[1],"10 µM [falling, partial curve]"
CCN(C(=O)COc1cc(=O)n(C)c2ccccc12)c1cccc(C(F)(F)F)c1,AC50,[1],"20 µM [falling, partial curve]"
Cc1nn(-c2ccccc2)c(C)c1C(=O)OCC(=O)N1CCN(S(=O)(=O)c2ccccc2)CC1,AC50,[1],"7.94 µM [falling, partial curve]"
Cc1ccccc1CN1CCc2nc(Nc3ccc4c(c3)OCCO4)ncc2C1,AC50,[1],"25.1 µM [falling, partial curve]"
CCOc1ccc(CCNC(=O)c2ccc(CS(=O)(=O)Cc3ccccc3Cl)o2)cc1OCC,AC50,[1],"39.8 µM [falling, single point]"
CCOc1ccc(C(=O)Nc2ccc(-c3nc4cc(CC)ccc4o3)cc2)cc1,AC50,[1],"6.31 µM [falling, single point]"
O=C(c1cc2c(=O)[nH]c3ccccc3c2s1)N1CCN(c2ccc(F)cc2)CC1,AC50,[1],"31.6 µM [falling, partial curve]"
CC(NC(=O)CCn1c(=O)c2cccn2c2ccc(F)cc21)c1ccccc1 (centres undefined),AC50,[1],"39.8 µM [falling, single point]"
COc1cccc(NC(=O)CCc2nc(-c3cc(OC)c(OC)c(OC)c3)no2)c1,AC50,[1],"12.6 µM [falling, partial curve]"
CCOC(=O)c1ccc(NC(=O)c2cc3c(=O)n(C)c4ccccc4c3n2C)cc1,AC50,[1],"2 µM [falling, partial curve]"
COc1cc2c(C(=O)N3CCN(c4ccc(C)cc4)C(C)C3)cn(CC(C)C)c(=O)c2cc1OC (centres undefined),AC50,[1],"25.1 µM [falling, single point]"
Cn1c2ccccc2c2cc(C(=O)OCC(=O)N3CC(=O)Nc4ccccc43)sc21,AC50,[1],"12.6 µM [falling, partial curve]"
COc1ccc(N2CCN(C(=O)Cc3noc4ccc(C)cc34)CC2)cc1,AC50,[1],"15.8 µM [falling, partial curve]"
CCc1ccc(NC(=O)Cn2ccn(-c3cccc(Cl)c3)c(=O)c2=O)cc1,AC50,[1],"20 µM [falling, single point]"
Cn1c(C(=O)N2CCN(Cc3ccc4c(c3)OCO4)CC2)cc2c(=O)n(C)c3ccccc3c21,AC50,[1],"12.6 µM [falling, partial curve]"
COc1ccc(/C=C/c2nc(C#N)c(NC3CCCCC3)o2)cc1OC,AC50,[1],"39.8 µM [falling, single point]"
CCOc1ccc(S(=O)(=O)N(CC(=O)Nc2cc(C)on2)Cc2ccccc2Cl)cc1,AC50,[1],"25.1 µM [falling, partial curve]"

# Rewritten bar-delimited: part of the list above
smiles | measurement | setting | value
CCn1c2ccccc2c2nnc(N3CCN(c4cccc(C)c4C)CC3)nc21 | AC50 | [1] | 15.8 µM [falling, partial curve]
O=C(NCCCN1CCOCC1)c1ccc2c(c1)N(Cc1ccccc1)C(=O)c1ccccc1S2 | AC50 | [1] | 15.8 µM [falling, single point]
CC1=C(C(=O)Nc2ccccc2)C(c2ccco2)C(C#N)=C(SCc2ccccc2)N1 (centres undefined) | AC50 | [1] | 6.31 µM [falling, partial curve]
